PMC12222672
Results are given in words; binding and its absence hold for the method and conditions named. Binding seen in cells or lysates may run through a third protein.

Target: β-catenin (human (endogenous in hESCs)) (UniProt P35222)
Assay: co-IP; endogenous, tag-free proteins from lysate of wt hESCs at 0 and 2 h of PS induction; 1 μg antibody (anti-p53 or anti-β-catenin) with 1 mg lysate protein overnight at 4 °C, Protein G Mag Sepharose; Co-IP buffer (40 mmol/L Hepes pH 7.4, 120 mmol/L NaCl, 1 mmol/L EDTA, 1% NP-40, 5% glycerol); western blot

binding: no binding
Substance: p53 (from UniProt P04637 1-393)
